Laboratory results taken from PubChem BioAssay AID1347131 (National Center for Advancing Translational Sciences (NCATS), 2019).
The campaign covered roughly 410,000 compounds. About 2,000 (0.49%) were called active. The inconclusive results got no clear call from the source; some entries with a clear call stand among them for comparison. Calls come from the whole dose curve; tested in HEK293 reporter line. Where the call is inconclusive, the potency comes from a doubtful curve fit.

Assay: qHTS Assay for Foot and Mouth Disease Virus Antivirals: Primary Screen against the MLPCN compound library; note: nearly all actives have a fitted effect of over 55% in size
Settings: FMDV antiviral cell-based qHTS; activity, negative = inhibition: at 57.9 µM (top of the series)
Potency is the fitted concentration of half-maximal effect.

Question: With `CCOC(=O)c1cnc2ccc(C)cc2c1NCCO` as the compound, how does the Potency read?
Answer: The Potency was inconclusive: 2.51 µM [inhibitor, full curve].

Question: For `Cn1c(=O)c(=O)n(C)c2cc(S(=O)(=O)Nc3ccc4c(c3)OCCO4)ccc21`, which Potency is on record?
Answer: The Potency was inconclusive: 39.8 µM [inhibitor, single point].

Question: For `Cc1c(C(=O)c2no[n+]([O-])c2C(=O)c2cnn(C)c2C)cnn1C`, which Potency is on record?
Answer: Its Potency is inconclusive: 39.8 µM [inhibitor, partial curve, poor fit].

Question: Which “activity, negative = inhibition” value does the source give for `CCOc1cccc(C(=O)Nc2ccc(S(=O)(=O)N(Cc3ccccc3)c3ccccc3)cc2)c1` here?
Answer: Its value is inactive: -35.6%.

Question: With `O=C1C=CC(=O)N1CCCCCCN1C(=O)C=CC1=O` as the compound, how does the Potency read?
Answer: Its Potency is inconclusive: 39.8 µM [inhibitor, partial curve, poor fit].

Question: For `CCOc1ccccc1/C=N/n1c(C)nc2ccccc2c1=O`, which “activity, negative = inhibition” value is on record?
Answer: Its value is inactive: -39.4%.

Question: With `O=C1c2cccc(OCC(=O)N3CCCc4ccccc43)c2CCN1Cc1ccc(F)cc1` as the compound, how does the Potency read?
Answer: Its Potency is inconclusive: 20 µM [inhibitor, partial curve, poor fit].

Question: Which Potency does the source give for `CCc1cc2c(N3CCN(c4ccccc4)CC3)ncnc2s1` here?
Answer: Its Potency is inconclusive: 25.1 µM [inhibitor, partial curve, poor fit].

Question: Which Potency does the source give for `CCN(CC)S(=O)(=O)c1ccc(NC(=O)c2ccc(OCC3CCCO3)cc2)cc1` (configuration not stated) here?
Answer: Its Potency is inconclusive: 28.2 µM [inhibitor, partial curve, poor fit].

Question: For `COc1ccc(-c2nnc(SCc3nnc(-c4ccc(Cl)cc4)o3)n2-c2ccccc2)cc1`, which Potency is on record?
Answer: The Potency was inconclusive: 17.8 µM [inhibitor, partial curve, poor fit].

Question: With `COc1ccc2cc3cc(C(=O)NC4CC4)sc3nc2c1` as the compound, how does the Potency read?
Answer: The Potency was inconclusive: 15.8 µM [inhibitor, partial curve, poor fit].

Question: For `O=C1NC(=O)/C(=C\c2ccc(OCc3cccc(C(=O)O)c3)c(Cl)c2)N1`, which Potency is on record?
Answer: The Potency was inconclusive: 11.2 µM [inhibitor, partial curve, poor fit].

Question: With `CN1CCN(c2ncnc3c2[nH]c2ccc(F)cc23)CC1` as the compound, how does the “activity, negative = inhibition” value read?
Answer: The value was inactive: -35.1%.

Question: Which Potency does the source give for `Cc1cc(N2C(=O)C(O)=C(C(=O)c3ccc(C)o3)C2c2cccc(Cl)c2)no1` (configuration not stated) here?
Answer: The Potency was inconclusive: 39.8 µM [inhibitor, partial curve, poor fit].

Question: With `COc1cc(-c2coc3c(C(=O)NCc4ccc(OC)c(OC)c4)cccc23)ccc1O` as the compound, how does the Potency read?
Answer: The Potency was inconclusive: 17.8 µM [inhibitor, partial curve, poor fit].

Question: Which Potency does the source give for `COc1ccccc1N1CCN(Cc2cc(COC(C)C)c3cccnc3c2O)CC1` here?
Answer: Its Potency is inconclusive: 11.2 µM [inhibitor, partial curve, poor fit].

Question: With `COc1ccc(S(=O)(=O)Nc2cc(SCC(=O)O)c(O)c3ccccc23)cc1` as the compound, how does the Potency read?
Answer: Its Potency is inconclusive: 28.2 µM [inhibitor, single point].

Question: For `CCOc1ccc(CN2CCNC(=O)C2CC(=O)NCCc2nc(C)c3c(n2)CCC3)cc1` (configuration not stated), which “activity, negative = inhibition” value is on record?
Answer: The value was inactive: -54%.

Question: Which “activity, negative = inhibition” value does the source give for `O=C(Nc1ccc(N2CCOCC2)c(Cl)c1)c1c(F)c(F)c(F)c(F)c1F` here?
Answer: Its value is inactive: -42.1%.

Question: With `CC(OC(=O)c1ccc(S(C)(=O)=O)c([N+](=O)[O-])c1)C(=O)NC1C2CC3CC(C2)CC1C3` (configuration not stated) as the compound, how does the Potency read?
Answer: Its Potency is inconclusive: 31.6 µM [inhibitor, single point].

Question: Which Potency does the source give for `O=C(c1ccc(-c2ccccc2)cc1)N1CCN(c2ccc3c(c2)C2CC3CCN2C(=O)OCc2ccccc2)CC1` (configuration not stated) here?
Answer: Its Potency is inconclusive: 5.62 µM [inhibitor, partial curve].

Question: With `Cc1nc2cc(NC(=O)c3ccc(Cl)cc3)ccc2n1C` as the compound, how does the Potency read?
Answer: The Potency was inconclusive: 22.4 µM [inhibitor, single point].

Question: Which Potency does the source give for `COC(=O)[C@@]12C[C@@H](CC(=O)N3CCCC3)C(=O)N(Cc3ccccc3)C1=CCC(C)(C)C2` here?
Answer: The Potency was inconclusive: 35.5 µM [inhibitor, partial curve, poor fit].

Question: With `CC(=O)Nc1ccc(C=C(C(C)=O)C(C)=O)cc1` as the compound, how does the Potency read?
Answer: The Potency was inconclusive: 31.6 µM [inhibitor, partial curve, poor fit].

Question: With `Cc1cccc(-n2c(SCc3ccc([N+](=O)[O-])cc3)nnc2-c2c[nH]c3ccccc23)c1` as the compound, how does the Potency read?
Answer: Its Potency is inconclusive: 10 µM [inhibitor, partial curve].

Question: Which Potency does the source give for `Cc1cc(C(=O)COC(=O)CNC(=O)c2ccccc2)c(C)n1CC1CCCO1` (configuration not stated) here?
Answer: The Potency was inconclusive: 15.8 µM [inhibitor, partial curve, poor fit].

Question: For `O=C(C=Cc1cccnc1)c1ccccc1`, which Potency is on record?
Answer: The Potency was inconclusive: 31.6 µM [inhibitor, partial curve, poor fit].

Question: For `O=[N+]([O-])/C=C\c1ccc(N2CCOCC2)cc1`, which Potency is on record?
Answer: The Potency was inconclusive: 17.8 µM [inhibitor, partial curve, poor fit].

Question: With `O=C1OCCN1C(=O)[C@H]1[C@H](c2ccc(Cl)cc2)C(c2ccccc2)=NN1c1ccc(Br)cc1` as the compound, how does the Potency read?
Answer: Its Potency is inconclusive: 7.08 µM [inhibitor, partial curve, poor fit].

Question: Which Potency does the source give for `c1ccc(-c2noc(-c3ccc4ccccc4c3)n2)cc1` here?
Answer: Its Potency is inconclusive: 8.91 µM [inhibitor, full curve].

Question: For `Cc1oc(-c2ccc(Cl)cc2)nc1CN1CCCC(C(=O)NCc2ccc(Cl)cc2)C1` (configuration not stated), which Potency is on record?
Answer: Its Potency is inconclusive: 35.5 µM [inhibitor, single point].

Question: Which Potency does the source give for `CCn1c(SCC(=O)Nc2ccc(OC)cc2OC)nc2nc3c(cc2c1=O)COC(C)(C)C3` here?
Answer: Its Potency is inconclusive: 17.8 µM [inhibitor, partial curve, poor fit].

Question: For `CC(=O)c1c(C)[nH]c(C(=O)Nc2nc(C)cs2)c1C`, which Potency is on record?
Answer: Its Potency is inconclusive: 10 µM [inhibitor, partial curve, poor fit].

Question: For `Cc1ccc(S(=O)(=O)NC(C(=O)OCC(=O)NC(=O)c2cccn2C)C(C)C)cc1` (configuration not stated), which Potency is on record?
Answer: The Potency was inconclusive: 39.8 µM [inhibitor, single point].

Question: Which Potency does the source give for `O=[N+]([O-])c1ccc(S(=O)(=O)c2ccccc2)nc1` here?
Answer: Its Potency is inconclusive: 35.5 µM [inhibitor, partial curve, poor fit].

Question: Which Potency does the source give for `CC(C)OC(=O)C(C(=O)C(F)(F)F)c1cc(NS(=O)(=O)c2ccc3ccccc3c2)c2ccccc2c1O` (configuration not stated) here?
Answer: Its Potency is inconclusive: 39.8 µM [inhibitor, single point].

Question: For `CC1(O)c2ccccc2C(=O)N1Cc1ccccc1` (configuration not stated), which Potency is on record?
Answer: Its Potency is inconclusive: 8.91 µM [inhibitor, full curve].

Question: With `CCN(CC)c1ccc(/C=N/NC(=O)c2cccc(S(=O)(=O)N3CCOCC3)c2)cc1` as the compound, how does the Potency read?
Answer: Its Potency is inconclusive: 14.1 µM [inhibitor, partial curve, poor fit].

Question: For `CC(C)c1cc(-c2cc(-c3ccc(Cl)cc3)on2)nc(NC2CCCC2)n1`, which Potency is on record?
Answer: Its Potency is inconclusive: 2.82 µM [inhibitor, partial curve].

Question: With `CCOc1ccc(C(=O)C(CCC(CN(C)C)C(=O)c2ccc(OCC)cc2)CN(C)C)cc1` (configuration not stated) as the compound, how does the Potency read?
Answer: Its Potency is inconclusive: 15.8 µM [inhibitor, partial curve, poor fit].

Question: For `O=C(CN1CCN(c2ccccn2)CC1)Nc1cccc(C(F)(F)F)c1`, which “activity, negative = inhibition” value is on record?
Answer: Its value is inactive: -43.4%.

Question: Which Potency does the source give for `Cc1c(Cl)cccc1NC(=O)C(=O)NCCc1csc(-c2cccc(F)c2)n1` here?
Answer: Its Potency is inconclusive: 11.2 µM [inhibitor, partial curve].

Question: With `CCCn1c2ccccc2c2cnn(CC(=O)N(CC)CC)c(=O)c21` as the compound, how does the Potency read?
Answer: Its Potency is inconclusive: 3.16 µM [inhibitor, partial curve, poor fit].

Question: For `Cc1ccc(NC(=O)c2ccc(OC(F)(F)F)cc2)cc1S(=O)(=O)N(C)C`, which Potency is on record?
Answer: Its Potency is inconclusive: 31.6 µM [inhibitor, partial curve, poor fit].

Question: Which Potency does the source give for `CCN(CC)c1ccc(-c2nc(-c3ccccn3)no2)cc1[N+](=O)[O-]` here?
Answer: Its Potency is inconclusive: 10 µM [inhibitor, partial curve].

Question: For `c1ccc(N2CCN(c3ncnc4c3nc3n4CCCCC3)CC2)cc1`, which Potency is on record?
Answer: The Potency was inconclusive: 10 µM [inhibitor, partial curve, poor fit].

Question: Which Potency does the source give for `Cc1ccc(NC(=O)N2CCc3ccccc32)cc1C` here?
Answer: Its Potency is inconclusive: 17.8 µM [inhibitor, single point].

Question: For `COC(=O)/C(C)=C\CC12OC(C)(C)C3CC(C=C4C(=O)c5c(OC)c6c(c(CC=C(C)C)c5OC431)OC(C)(CCC=C(C)C)C=C6)C2=O` (configuration not stated), which Potency is on record?
Answer: The Potency was inconclusive: 31.6 µM [inhibitor, single point].

Question: Which Potency does the source give for `COc1cc2sc3ccc(-c4ccc(CN5CCOCC5)cc4)cc3c(=O)c2cc1OC` here?
Answer: Its Potency is inconclusive: 31.6 µM [inhibitor, partial curve, poor fit].

Question: Which Potency does the source give for `Nc1c(C(=O)Nc2cccc(C(=O)O)c2)sc2nc3c(cc12)CCCC3` here?
Answer: Its Potency is inconclusive: 6.31 µM [inhibitor, full curve, poor fit].

Question: For `O=c1[nH]c(CCl)nc2cc(-c3ccc(F)cc3)sc12`, which Potency is on record?
Answer: Its Potency is inconclusive: 39.8 µM [inhibitor, single point].

Question: Which Potency does the source give for `Cc1ccc(OCC(=O)Nc2ccc(C(=O)OCc3cc(=O)n4ccsc4n3)cc2)cc1C` here?
Answer: Its Potency is inconclusive: 35.5 µM [inhibitor, partial curve, poor fit].

Question: With `CC(=O)c1ccc(N2CCN(S(=O)(=O)c3ccc(-c4cnc(C5CC5)o4)cc3)CC2)cc1` as the compound, how does the Potency read?
Answer: The Potency was inconclusive: 31.6 µM [inhibitor, partial curve, poor fit].

Question: Which Potency does the source give for `CC1CC(=O)c2c(cc3c(-c4c(O)cc(O)c5c(O)c6c(cc45)OC(C)CC6=O)c(O)cc(O)c3c2O)O1` (configuration not stated) here?
Answer: Its Potency is inconclusive: 35.5 µM [inhibitor, partial curve, poor fit].

Question: For `Cc1cc(C(=O)COC(=O)c2cccnc2Cl)c(C)n1C`, which Potency is on record?
Answer: Its Potency is inconclusive: 15.8 µM [inhibitor, single point].

Question: For `CN1C(=O)C(=Cc2sc(=O)n(-c3ccccc3)c2N(C)C)C(=O)N(C)C1=O`, which Potency is on record?
Answer: Its Potency is inconclusive: 15.8 µM [inhibitor, partial curve, poor fit].

Question: For `Cc1sc(NC(=O)Cn2cnnn2)nc1-c1ccc(Cl)cc1`, which activity, negative = inhibition is on record?
Answer: Its activity, negative = inhibition is inconclusive: -39.1% [inhibitor].
